We go through eleven molecules from the supplement of paper PMC6143611.

For experiment [1], the system named is Danio rerio larva rod photoreceptor outer segment. Description: rod outer segment growth distance Dg, difference from same-week DMSO control mean; higher = more outer segment growth. The conditions noted are these: 20 µM; treatment time: 4 days (6-10 dpf).
The test system is the same in experiment [2]. The experiment can be described thus: rod outer segment shedding distance Ds, difference from same-week DMSO control mean; higher = less outer segment shedding. The conditions noted are these: 20 µM; treatment time: 4 days (6-10 dpf).

± gives the uncertainty stated by the source. The list shows a part of the results. Baselines shift from plate to plate; read single values as rough.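 At 6 dpf, larvae had a heat-shock-induced fluorescent stripe placed in rod outer segments; shedding distance, from stripe to outer segment tip, was measured in confocal stacks, roughly three fish per compound. Controls received 0.2% DMSO vehicle; compounds were flagged for ≥20% change versus same-week control and p < 0.001 (Dunnett test, mixed-effects models).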

Regarding `COc1cc2c(cc1-c1c(C)noc1C)ncc1[nH]c(=O)n([C@H](C)c3ccccn3)c12`, the “rod outer segment growth distance Dg” value in experiment [1] is -0.45 ± 0.15 um. Moreover, the “rod outer segment shedding distance Ds” value in experiment [2] is 0.66 ± 0.12 um.
On to `CCO[C@@H]1OC(=O)C[C@@H]1NC(=O)[C@@H]1CCCN1C(=O)[C@@H](NC(=O)c1ccc(N)c(Cl)c1)C(C)(C)C`, for which the “rod outer segment growth distance Dg” value in experiment [1] was -0.06 ± 0.35 um. The “rod outer segment shedding distance Ds” value in experiment [2] was -0.7 ± 0.38 um.
On the same counts, the results for `NS(=O)(=O)c1cc2c(cc1Cl)N=CNS2(=O)=O` [Chlorothiazide] are -0.36 ± 0.22 um and -0.35 ± 0.17 um.
As to `CC[N+](CC)(CC)CCOc1cccc(OCC[N+](CC)(CC)CC)c1OCC[N+](CC)(CC)CC` [Gallamine Triethiodide], in experiment [1], the “rod outer segment growth distance Dg” value came to 0.12 ± 0.31 um. Further, in experiment [2], the “rod outer segment shedding distance Ds” value turned out to be 0.02 ± 0.31 um.
Taken in the same sequence, the figures for `Cc1ccnc2c1NC(=O)c1cccnc1N2C1CC1` [Nevirapine] were -0.63 ± 0.22 um and -0.08 ± 0.17 um.
Taken in the same sequence, the figures for `COc1ccc(Cl)cc1C(=O)NCCc1ccc(S(=O)(=O)NC(=O)NC2CCCCC2)cc1` [Glyburide] were -0.13 ± 0.27 um and -0.32 ± 0.15 um.
Taken in the same sequence, the figures for `CN[C@@H](C)C(=O)N[C@H](C(=O)N1CCC[C@H]1C(=O)Nc1snnc1-c1ccccc1)C1CCCCC1` were -0.25 ± 0.17 um and 0.1 ± 0.13 um.
As to `Cn1cnc2c(F)c(Nc3ccc(Br)cc3F)c(C(=O)NOCCO)cc21`, the “rod outer segment growth distance Dg” value in experiment [1] was -0.36 ± 0.13 um. Besides, the “rod outer segment shedding distance Ds” value in experiment [2] amounted to 0.38 ± 0.13 um.
For `Cc1[nH]c(/C=C2\C(=O)Nc3ccc(S(=O)(=O)N(C)c4cccc(Cl)c4)cc32)c(C)c1C(=O)N1CCN(C)CC1`, the “rod outer segment growth distance Dg” value in experiment [1] is -1.76 ± 0.17 um. The “rod outer segment shedding distance Ds” value in experiment [2] is 0.39 ± 0.23 um.
Take `CCN(CC)CCNC(=O)c1c(C)[nH]c(/C=C2\C(=O)Nc3ccc(F)cc32)c1C` [Sunitinib Malate]: in experiment [1], the “rod outer segment growth distance Dg” value is -1.25 ± 0.19 um. The “rod outer segment shedding distance Ds” value in experiment [2] was -0.71 ± 0.29 um.
On the same counts, the results for `CN(C[C@@H]1COCCO1)S(=O)(=O)Nc1ccc2ccc3ncc(-c4cnn(C)c4)cc3c(=O)c2c1` are 0.13 ± 0.15 um and 0.38 ± 0.13 um.
